According to PubChem BioAssay AID504444 (National Center for Advancing Translational Sciences (NCATS), 2011):
Hit rate of the full screen: of about 360,000 compounds, about 7,500 (2.1%) were called active. Inconclusive results, whose numbers are uncertain, are shown with a selection of clear calls. Calls follow the shape of the dose curve; as a rule, active = well fitted inhibition curve with a large enough effect; inconclusive = small, poorly fitted or top-dose-only effect, or effect the other way; inactive = flat fitted curve, though single readings scatter. A potency beside an inconclusive call is a rough fit, not a confirmed value.

Test: Nrf2 qHTS screen for inhibitors; also: nearly all actives have a fitted effect of over 60% in size
Settings: A549 ARE-Fluc reporter, luciferase luminescence, 18-24 h; activity change, negative = inhibition: at 46 µM (top of the series)
How it was run: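 Nrf2 activity is the BugLite luminescence, read 15 min after reagent at room temperature, following CellTiter-Fluor cytotoxicity readout (30 min, 37C). Compound titrations were applied for 18-24 h to 5000 A549 ARE_Fluc cells/well in 5% FBS OPTI-MEM.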
% is scaled to controls: 0 for no effect and ±100 for the full control effect; potency is read from the fitted curve at half-maximal effect.

| Compound | Potency | activity change, negative = inhibition |
| --- | --- | --- |
| Cc1ccc(S(=O)(=O)NC(C)CCc2ccccc2)cc1C(N)=O (centres undefined) | inconclusive: 20.6 µM [falling, partial curve, poor fit] | – |
| COc1ccc(-c2[nH]ncc2C(=O)NCc2ccccc2C)cc1 | – | inactive: -8.38% |
| COC(=O)c1cccc(C23CC4(C2)[C@H](CN(Cc2cccnc2)[C@@H]4c2ccccc2)C3c2ccc(C(F)(F)F)cc2)c1 (some centres undefined) | inconclusive: 18.4 µM [falling, partial curve, poor fit] | – |
| O=C(Cn1cnc2c(NCc3ccccc3)ncnc21)NCCCc1ccccc1 | inconclusive: 18.4 µM [falling, single point] | – |
| CN(C(=O)c1cccc(NC(=O)Cc2ccc([N+](=O)[O-])cc2)c1)C1CC1 | active: 20.6 µM | – |
| Cc1cc(C(=O)NNC(=O)CCC2CCCCC2)c(C)o1 | inconclusive: 2.59 µM [falling, full curve] | – |
| O=C(Cn1ccc(C(F)(F)F)n1)NNC(=O)c1cccnc1 | – | inactive: 1.59% |
| CCN(CC)c1nc(Nc2ccccc2)nc(Oc2ccc(=O)[nH]n2)n1 | inconclusive: 29.1 µM [falling, single point] | – |
| CC(/C=N/NC(=O)CCn1nnc2ccccc21)=C\c1ccccc1 | inconclusive: 3.26 µM [activator, single point] | – |
| CC1(C)CC2CC(C)(CN2c2ncnc3ccccc23)C1 (centres undefined) | active: 10.3 µM | – |
| O=c1nc(NC2CCCC2)ccn1Cc1cccc(Br)c1 | inconclusive: 7.31 µM [falling, partial curve, poor fit] | – |
| COc1ccc(OCC(=O)OCc2cc(=O)n3nc(C4CCCCC4)sc3n2)cc1 | inconclusive: 29.1 µM [activator, single point] | – |
| CCOC(=O)c1sc2ccc(S(=O)(=O)N3CCCCC3)cc2c1N | inconclusive: 23.1 µM [falling, partial curve, poor fit] | – |
| CCOC(=O)N1CCN(C(=O)COc2ccc3ccccc3c2Br)CC1 | inconclusive: 29.1 µM [falling, single point] | – |
| CNC(=O)c1ccccc1NC(=O)c1cccc(S(=O)(=O)N2CCC(C)CC2)c1 | inconclusive: 25.9 µM [falling, single point] | – |
| COc1ccc(-n2c(N)c(C(=O)NCc3ccco3)c3nc4ccccc4nc32)cc1OC | – | inactive: 18.9% |
| COc1ccc(N2CCN(C(=O)c3cn(CC(C)C)c(=O)c4c3c3ccccc3n4C)CC2)cc1 | inconclusive: 18.4 µM [falling, single point] | – |
| C/C(=N\O)C(=O)NCCCNCCCN(C)C | inconclusive: 4.11 µM [falling, partial curve, poor fit] | – |
| CC(C)(C)n1ncc2c(=O)n(Cc3ccc(Cl)cc3)cnc21 | inconclusive: 18.4 µM [falling, single point] | – |
| CCc1ccc(-c2nn(CC(=O)Nc3ccccc3)c3c2cnc2ccc(F)cc23)cc1 | inconclusive: 18.4 µM [activator, partial curve, poor fit] | – |
| CC(NC(=O)CN1C(=O)NC(Cc2ccccc2)(Cc2ccccc2)C1=O)C12CC3CC(CC(C3)C1)C2 (centres undefined) | active: 25.9 µM | – |
| COc1ccc(C2CC(c3c(-c4ccccc4)c4cc(Cl)ccc4[nH]c3=O)=NN2S(C)(=O)=O)cc1OC (centres undefined) | – | inactive: 4.18% |

| Compound | Potency | activity change, negative = inhibition |
| --- | --- | --- |
| CC(C)OC(=O)C(CC(=O)O)N1CCOCC1 (centres undefined) | – | inactive: 5.01% |
| O=Cc1cn(CC(=O)Nc2ccc(F)cc2)c2ccccc12 | – | inactive: -4.5% |
| Cc1cccc(NC(=O)CSc2ncnc3nc[nH]c23)c1C | inconclusive: 2.06 µM [falling, full curve, poor fit] | – |
| O=C(Cn1c(=O)c2cccn2c2ccccc21)Nc1cc(F)ccc1F | inconclusive: 16.4 µM [falling, single point] | – |
| COc1ccc(Cn2c(SCc3ccc(C(=O)NC(C)C)cc3)nc3cccnc32)cc1 | inconclusive: 9.2 µM [falling, partial curve, poor fit] | – |
| Cc1nc(SCc2nc3ccc(Cl)cc3[nH]2)c2oc3ccccc3c2n1 | inconclusive: 20.6 µM [falling, partial curve, poor fit] | – |
| COc1ccccc1NC(=O)c1cccc(S(=O)(=O)N2CCCCCC2)c1 | inconclusive: 29.1 µM [falling, single point] | – |
| COc1ccc(OC)c(/C=N\NC(=O)c2ccc(COc3ccc(C)cc3[N+](=O)[O-])o2)c1 | inconclusive: 32.6 µM [falling, single point] | – |
| Cc1onc(-c2ccccc2)c1C(=O)OCCOc1ccc([N+](=O)[O-])cc1[N+](=O)[O-] | inconclusive: 23.1 µM [falling, single point] | – |
| S=C(Nc1ccc2c(c1)OCO2)N1CCCC1 | inconclusive: 23.1 µM [activator, single point] | – |
| CC1(CC(=O)N/N=C/c2cc([N+](=O)[O-])c(O)cc2O)OCCO1 | inconclusive: 20.6 µM [falling, partial curve, poor fit] | – |
| COc1ccc(S(=O)(=O)N2CCN(c3c(C)cccc3C)CC2)cc1OC | inconclusive: 25.9 µM [falling, partial curve, poor fit] | – |
| Cn1ccc2cc(-c3ccc4ncnc(NCc5cccs5)c4c3)ccc21 | inconclusive: 29.1 µM [falling, single point] | – |
| CCCCOP(=O)(c1ccc(N(C)C)cc1)C(O)c1ccncc1 (centres undefined) | inconclusive: 25.9 µM [activator, partial curve, poor fit] | – |
| COc1ccccc1OCC(=O)Nc1cccc(-c2nc3ccccc3o2)c1 | inconclusive: 29.1 µM [falling, single point] | – |
| O=C(Nc1cccc(S(=O)(=O)NC2=NCCCCC2)c1)c1cc(-c2ccco2)nc2ccccc12 | inconclusive: 18.4 µM [falling, partial curve, poor fit] | – |
| COc1ccc(-c2ccc(=O)n(CC(=O)NC3CCc4ccccc43)n2)cc1OC (centres undefined) | inconclusive: 6.51 µM [falling, full curve] | – |
| COc1ccc(OC)c(NC(=O)/C=C/c2ccccc2[N+](=O)[O-])c1 | – | inactive: -3.95% |
| COc1ccc(NS(=O)(=O)c2cccc(NC(=O)CCS(=O)(=O)c3ccccc3)c2)cc1 | inconclusive: 18.4 µM [falling, single point] | – |
| CCNc1nc(NC(C)C)nc(N(C#N)CCOc2ccc(Cl)cc2Cl)n1 | active: 9.2 µM | – |
| Cc1c(CCOC(=O)C23CC4CC(CC(C4)C2)C3)sc[n+]1CC#N | inconclusive: 16.4 µM [falling, partial curve, poor fit] | – |
| CCOc1ccc(OCc2ccc(C(=O)O)o2)cc1 | inconclusive: 1.46 µM [activator, partial curve] | – |

| Compound | Potency | activity change, negative = inhibition |
| --- | --- | --- |
| Cc1nc(N2CCN(Cc3ccccc3)CC2)nc2c1C(=O)CC(c1ccco1)C2 (centres undefined) | inconclusive: 16.4 µM [falling, partial curve] | – |
| Cc1ccc(S(=O)(=O)Nc2ccc(C(=O)N3CCN(c4ccccc4O)CC3)cc2)cc1[N+](=O)[O-] | active: 14.6 µM | – |
| Cc1ccc(C(=O)C[n+]2ccccc2)cc1 | inconclusive: 5.8 µM [activator, partial curve] | – |
| O=[N+]([O-])c1ccc(N/N=C\c2cccn2-c2ccccc2)nc1 | inconclusive: 20.6 µM [falling, single point] | – |
| CCN(CC)Cc1c(O)ccc2cc(-c3nc4ccccc4n3C)c(=O)oc12 | inconclusive: 11.6 µM [activator, partial curve, poor fit] | – |
| CCOc1ccc(NC(=S)c2ccc3ccccc3n2)cc1 | inconclusive: 2.59 µM [activator, partial curve, poor fit] | – |
| Cc1nnc(NC(=O)CSc2ccccc2N)s1 | inconclusive: 2.91 µM [activator, partial curve, poor fit] | – |
| CSc1nc(C)c(Cl)c(C)c1C#N | – | inactive: 2.13% |
| COc1cc(-c2csc(NC3CCCCC3)n2)cc(OC)c1OC | inconclusive: 16.4 µM [falling, partial curve] | – |
| CCN(CC(=O)Nc1sc2c(c1C#N)CCC(C)C2)CC(=O)NC1CCS(=O)(=O)C1 (centres undefined) | – | inactive: 13.6% |
| Cc1cc(C)c(C(=O)OCc2csc(CC(=O)Nc3ccccc3C)n2)c(C)c1 | inconclusive: 29.1 µM [falling, single point] | – |
| COc1ccc(CNC(=O)c2c3c(nc4ccccc24)C(=O)N(C2CCCCC2)C3)c(OC)c1 | inconclusive: 2.91 µM [falling, partial curve, poor fit] | – |
| COC(=O)c1scc(-c2ccc(C)cc2)c1S(=O)(=O)Nc1cc(OC)c(OC)c(OC)c1 | inconclusive: 14.6 µM [falling, partial curve] | – |
| CCCC(=O)Nc1nc(C)c(-c2csc(Nc3ccc(Cl)cc3)n2)s1 | active: 7.31 µM | – |
| CS(=O)(=O)Nc1cccc(C2=NN(S(=O)(=O)c3ccc(F)cc3)C(c3cccs3)C2)c1 (centres undefined) | inconclusive: 29.1 µM [falling, single point] | – |
| O=C(Nc1c(Cl)ccc2nsnc12)c1ccc([N+](=O)[O-])o1 | inconclusive: 6.51 µM [activator, partial curve, poor fit] | – |
| COc1cc(CNCCc2ccccc2F)ccc1OCC(=O)N1CCCCC1 | inconclusive: 0.461 µM [activator, partial curve, poor fit] | – |
| Cc1cccc(C)c1NC(=S)N1CCC(c2ccccc2)C1 (centres undefined) | inconclusive: 29.1 µM [falling, single point] | – |
| O=C(Cc1ccccc1)Nc1nnc(-c2ccco2)o1 | inconclusive: 0.82 µM [falling, full curve, poor fit] | – |
| O=C(c1ccc(CNc2c(N3CCOCC3)c(=O)c2=O)cc1)N1CC=C(c2ccccc2)CC1 | inconclusive: 29.1 µM [falling, partial curve, poor fit] | – |

5 entries drawn at random from the list so far, as already listed:

| Compound | Potency | activity change, negative = inhibition |
| --- | --- | --- |
| O=C(Cc1ccccc1)Nc1nnc(-c2ccco2)o1 | inconclusive: 0.82 µM [falling, full curve, poor fit] | – |
| Cc1nc(N2CCN(Cc3ccccc3)CC2)nc2c1C(=O)CC(c1ccco1)C2 (centres undefined) | inconclusive: 16.4 µM [falling, partial curve] | – |
| O=C(Nc1c(Cl)ccc2nsnc12)c1ccc([N+](=O)[O-])o1 | inconclusive: 6.51 µM [activator, partial curve, poor fit] | – |
| Cc1nnc(NC(=O)CSc2ccccc2N)s1 | inconclusive: 2.91 µM [activator, partial curve, poor fit] | – |
| COc1cc(-c2csc(NC3CCCCC3)n2)cc(OC)c1OC | inconclusive: 16.4 µM [falling, partial curve] | – |
